Data: the supplement of paper PMC7661543
± gives the standard deviation of the averaged measurements. Differences between knockout arms are mostly noise.

Tested on: ZR-75-1
Experiment: relative cell number vs DMSO control (72 h) (% of DMSO); higher = less growth inhibition (more cells)
Method: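 QMAP-Seq: a pool of 5 breast cancer cell lines (ZR-75-1, SKBR3, HCC-38, MDA-MB-231, BT-20), each carrying 12 doxycycline-inducible Cas9 sgRNA perturbations (11 knockouts plus non-targeting sgNT), was treated with compounds for 72 h at four 10-fold doses (10 nM-10 uM or 1 nM-1 uM range). Barcodes were amplified and sequenced, and cell number was interpolated from 293T spike-in standard curves. The result is expressed as % of the median of DMSO wells. Two biological replicates.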

[1] = sgRNA knockout: sgATF3, 1000 nM
[2] = sgRNA knockout: sgATF3, 10000 nM
[3] = sgRNA knockout: sgATF4, 1000 nM
[4] = sgRNA knockout: sgATF4, 10000 nM
[5] = sgRNA knockout: sgATF6, 1000 nM
[6] = sgRNA knockout: sgATF6, 10000 nM
[7] = sgRNA knockout: sgATG7, 1000 nM
[8] = sgRNA knockout: sgATG7, 10000 nM
[9] = sgRNA knockout: sgERN1, 1000 nM
[10] = sgRNA knockout: sgERN1, 10000 nM
[11] = sgRNA knockout: sgHSF2, 1000 nM
[12] = sgRNA knockout: sgHSF2, 10000 nM
[13] = sgRNA knockout: sgNFE2L2, 10 nM
[14] = sgRNA knockout: sgNFE2L2, 100 nM
[15] = sgRNA knockout: sgNFE2L2, 1000 nM
[16] = sgRNA knockout: sgNFE2L2, 10000 nM
[17] = sgRNA knockout: sgSLC35F2, 10 nM
[18] = sgRNA knockout: sgSLC35F2, 100 nM
[19] = sgRNA knockout: sgSLC35F2, 1000 nM
[20] = sgRNA knockout: sgSLC35F2, 10000 nM
[21] = sgRNA knockout: sgXBP1, 1000 nM
[22] = sgRNA knockout: sgXBP1, 10000 nM

Structure (SMILES)	relative cell number (sgRNA knockout: sgATF3, 10 nM)	relative cell number (sgRNA knockout: sgATF3, 100 nM)	relative cell number [1]	relative cell number [2]	relative cell number (sgRNA knockout: sgATF4, 10 nM)	relative cell number (sgRNA knockout: sgATF4, 100 nM)	relative cell number [3]	relative cell number [4]	relative cell number (sgRNA knockout: sgATF6, 10 nM)	relative cell number (sgRNA knockout: sgATF6, 100 nM)	relative cell number [5]	relative cell number [6]	relative cell number (sgRNA knockout: sgATG7, 10 nM)	relative cell number (sgRNA knockout: sgATG7, 100 nM)	relative cell number [7]	relative cell number [8]	relative cell number (sgRNA knockout: sgERN1, 10 nM)	relative cell number (sgRNA knockout: sgERN1, 100 nM)	relative cell number [9]	relative cell number [10]	relative cell number (sgRNA knockout: sgHSF2, 10 nM)	relative cell number (sgRNA knockout: sgHSF2, 100 nM)	relative cell number [11]	relative cell number [12]	relative cell number [13]	relative cell number [14]	relative cell number [15]	relative cell number [16]	relative cell number [17]	relative cell number [18]	relative cell number [19]	relative cell number [20]	relative cell number (sgRNA knockout: sgXBP1, 10 nM)	relative cell number (sgRNA knockout: sgXBP1, 100 nM)	relative cell number [21]	relative cell number [22]
Cc1cn(-c2cc(NC(=O)c3ccc(C)c(Nc4nccc(-c5cccnc5)n4)c3)cc(C(F)(F)F)c2)cn1 [Nilotinib]	128 ± 17	110 ± 4.3	104 ± 26	54.6 ± 8.3	138 ± 52	141 ± 12	98.3 ± 23	31.3 ± 26	134 ± 23	81.7 ± 19	124 ± 46	81 ± 43	70.1 ± 16	86.1 ± 28	102 ± 12	42.4 ± 23	112 ± 31	89 ± 13	85.6 ± 24	44.3 ± 22	97.5 ± 13	96.2 ± 29	101 ± 17	54.3 ± 7.5	72.7 ± 3.5	108 ± 37	98 ± 3.7	46 ± 12	50 ± 4.8	99.4 ± 24	138 ± 47	23.1 ± 6.2	79.1 ± 12	94.6 ± 46	86.2 ± 12	48.1 ± 1.5
Cn1nnc2c(C(N)=O)ncn2c1=O [Temozolomide]	120 ± 28	94.2 ± 4.2	111 ± 33	88 ± 61	136 ± 2.8	107 ± 4.2	148 ± 3.4	116 ± 36	113 ± 29	87.1 ± 28	79.8 ± 35	94.8 ± 60	81.5 ± 20	82 ± 21	86.8 ± 37	99.4 ± 45	102 ± 17	80.9 ± 5.5	108 ± 33	112 ± 62	92.6 ± 4	90.3 ± 6.4	108 ± 6.4	82.4 ± 31	116 ± 6.6	106 ± 15	115 ± 27	105 ± 36	103 ± 36	136 ± 33	128 ± 42	152 ± 59	105 ± 1.2	84.8 ± 16	115 ± 23	96 ± 42
Cc1cc2c(C(C)C)c(O)c(O)c(C=O)c2c(O)c1-c1c(C)cc2c(C(C)C)c(O)c(O)c(C=O)c2c1O [Gossypol]	102 ± 32	89.3 ± 19	76.3 ± 2.4	33.7 ± 4.7	101 ± 1.2	110 ± 16	135 ± 57	37.2 ± 14	115 ± 62	62.4 ± 11	127 ± 12	32.1 ± 3.2	92.9 ± 20	105 ± 19	127.2 ± 0.67	27.4 ± 0.95	97.6 ± 2.8	99.55 ± 0.16	109 ± 21	37.4 ± 16	104 ± 7	93.4 ± 4.5	108 ± 23	34.6 ± 2.5	113 ± 32	86.7 ± 8.2	130 ± 31	32.8 ± 11	112 ± 62	131 ± 66	77.6 ± 33	46.6 ± 9.8	119 ± 24	91.5 ± 5.7	115 ± 6	32.8 ± 1
CN1CCN(CCCN2c3ccccc3Sc3ccc(C(F)(F)F)cc32)CC1 [Trifluoperazine]	70.9 ± 34	112 ± 27	86.5 ± 40	51.9 ± 4.6	91.3 ± 21	87.5 ± 21	73.1 ± 1.8	59.8 ± 16	89.4 ± 28	118 ± 31	65.3 ± 6.5	56.8 ± 33	81.1 ± 14	67.9 ± 4.5	75.5 ± 3.1	50.7 ± 12	75.3 ± 12	95.9 ± 5.5	121 ± 12	52 ± 2.5	76.7 ± 27	115 ± 28	73.3 ± 2	58.8 ± 7.1	80.9 ± 30	80.6 ± 9.1	76.5 ± 4.1	79.9 ± 8.9	72.6 ± 23	93.1 ± 12	29.2 ± 15	28.1 ± 8.8	82.53 ± 0.7	96.27 ± 0.8	73.7 ± 6	68.2 ± 4.1
CNC(=O)c1cc(Oc2ccc(NC(=O)Nc3ccc(Cl)c(C(F)(F)F)c3)cc2)ccn1 [Sorafenib]	106 ± 18	106 ± 18	152 ± 2.6	29.4 ± 6.1	110 ± 60	90.8 ± 62	124 ± 23	34.4 ± 8.6	83.4 ± 33	70.5 ± 38	120 ± 16	48.4 ± 12	90.1 ± 30	105 ± 46	114 ± 8.7	38.7 ± 7.7	98.9 ± 5.8	88.1 ± 3.3	125 ± 6	45.9 ± 12	74.4 ± 17	121 ± 14	150 ± 28	35.26 ± 0.34	174 ± 6.1	87.3 ± 17	114 ± 10	36.68 ± 0.17	84.7 ± 4.1	84.2 ± 4	177 ± 28	49.8 ± 5.3	138 ± 3	110 ± 1.6	115 ± 17	41.6 ± 1.8
CC(C)(C)c1ccc(S(=O)(=O)NCc2ccc(C(=O)Nc3cccnc3)cc2)cc1 [STF31]	116 ± 4.9	86.7 ± 20	64.4 ± 13	66.9 ± 1.7	91.8 ± 10	82.5 ± 35	34 ± 4.4	60.2 ± 14	112 ± 57	88 ± 7.7	71.7 ± 64	67.5 ± 33	110 ± 22	105 ± 12	79.6 ± 17	38.7 ± 2.1	107 ± 8.8	87.3 ± 25	80.1 ± 12	70.7 ± 20	102 ± 9.7	80.1 ± 28	63.2 ± 12	42 ± 3.2	119.8 ± 0.34	92.1 ± 40	69.3 ± 4.9	36.8 ± 4.4	108 ± 18	97.3 ± 14	91.5 ± 5.8	50.4 ± 5	98.2 ± 1.3	80.5 ± 16	79.48 ± 0.3	43.2 ± 13
Cc1c(Cn2c(C)nc3c(C(=O)O)cc(N4CCOCC4)cc32)cccc1C(F)(F)F	140 ± 23	99.2 ± 16	82.6 ± 6.7	92.2 ± 24	111 ± 37	137 ± 40	88.3 ± 22	102 ± 37	82.4 ± 10	87.3 ± 14	98.1 ± 4	105 ± 37	104 ± 3.8	114 ± 45	101 ± 25	73.5 ± 5.1	116 ± 18	101 ± 8.4	88.5 ± 2.2	89.91 ± 0.42	120 ± 36	90.8 ± 27	90.52 ± 0.49	81.2 ± 11	127 ± 30	95.6 ± 9.8	83.8 ± 4.9	116 ± 33	76.8 ± 34	156 ± 43	85.4 ± 41	99.8 ± 16	138 ± 1.7	98.6 ± 12	84.8 ± 8.3	99.7 ± 22
C#Cc1cccc(Nc2ncnc3cc(OCCOC)c(OCCOC)cc23)c1 [Erlotinib]	108 ± 40	83.6 ± 2.7	95.6 ± 9.8	69.9 ± 8.6	127 ± 9.6	106 ± 25	83.1 ± 15	60.6 ± 3	84.3 ± 10	110 ± 34	79.6 ± 20	78 ± 19	91.3 ± 7.8	98.2 ± 36	71.2 ± 16	86.5 ± 39	117 ± 10	110 ± 2.3	110 ± 8.3	81.1 ± 5.4	98.5 ± 29	78.8 ± 3.4	92.1 ± 31	66.5 ± 11	119 ± 11	88.6 ± 12	86.5 ± 9.1	57.7 ± 0.87	97 ± 22	79.4 ± 34	87.2 ± 1.5	47.48 ± 0.074	101 ± 14	89.8 ± 9.2	89.2 ± 14	70 ± 7.3
COc1cc2nccc(Oc3ccc(NC(=O)C4(C(=O)Nc5ccc(F)cc5)CC4)cc3)c2cc1OC [Cabozantinib]	83.2 ± 11	99.5 ± 19	105 ± 29	47.2 ± 21	117 ± 11	93.6 ± 7.4	96.2 ± 22	34.2 ± 12	105 ± 4.9	93.9 ± 58	94.8 ± 24	26.2 ± 8.5	92.8 ± 12	74.5 ± 51	85.2 ± 2.1	34.8 ± 18	93.2 ± 19	114 ± 19	106 ± 37	47.7 ± 0.83	94.4 ± 20	113 ± 13	92.9 ± 14	37.3 ± 14	90.3 ± 35	94.5 ± 1.8	89.1 ± 34	33.8 ± 7.6	118 ± 20	85 ± 28	63.3 ± 58	37.9 ± 28	79.7 ± 3.9	103 ± 34	102 ± 40	36.4 ± 14
COc1cc2c(cc1-c1c(C)noc1C)ncc1[nH]c(=O)n([C@H](C)c3ccccn3)c12 [IBET151]	115 ± 3.1	99.6 ± 20	52.4 ± 1.4	32.7 ± 4.3	135 ± 29	108 ± 2.8	64.3 ± 9.3	40.7 ± 23	107 ± 23	135 ± 56	37 ± 1.9	27 ± 0.49	79.3 ± 14	89.8 ± 22	64.5 ± 16	35.4 ± 11	85.2 ± 28	72 ± 1.4	64.4 ± 6.7	41.5 ± 2.7	101 ± 2.2	90.7 ± 7.5	50.1 ± 0.83	33.6 ± 2.2	103 ± 42	87 ± 6.8	59.6 ± 17	42 ± 0.67	85 ± 22	97.9 ± 33	58.9 ± 14	56.3 ± 25	97.3 ± 30	82.5 ± 24	51.4 ± 3.9	29.7 ± 7.5
Cc1nc(Nc2ncc(C(=O)Nc3c(C)cccc3Cl)s2)cc(N2CCN(CCO)CC2)n1 [Dasatinib]	90.1 ± 5.7	79 ± 20	75.6 ± 20	71.5 ± 16	67.7 ± 51	82.2 ± 41	77.6 ± 12	55.1 ± 20	104 ± 21	72.1 ± 43	42.8 ± 5.6	47.1 ± 4.8	73.7 ± 32	86.8 ± 7.2	85.7 ± 9.7	58.4 ± 22	62.5 ± 14	83.6 ± 8.9	51.8 ± 6.3	39.5 ± 10	85.66 ± 0.21	93.7 ± 8.1	65.5 ± 13	54.1 ± 9.4	103 ± 28	85.3 ± 25	70.2 ± 1.3	56.6 ± 12	79.9 ± 2.9	73.3 ± 50	59.8 ± 6	42.7 ± 15	97.6 ± 7.7	95.9 ± 9.2	62.2 ± 6.2	49.9 ± 3.3

Complete entries, quoted from the list. Order of values: relative cell number (sgRNA knockout: sgATF3, 10 nM)	relative cell number (sgRNA knockout: sgATF3, 100 nM)	relative cell number [1]	relative cell number [2]	relative cell number (sgRNA knockout: sgATF4, 10 nM)	relative cell number (sgRNA knockout: sgATF4, 100 nM)	relative cell number [3]	relative cell number [4]	relative cell number (sgRNA knockout: sgATF6, 10 nM)	relative cell number (sgRNA knockout: sgATF6, 100 nM)	relative cell number [5]	relative cell number [6]	relative cell number (sgRNA knockout: sgATG7, 10 nM)	relative cell number (sgRNA knockout: sgATG7, 100 nM)	relative cell number [7]	relative cell number [8]	relative cell number (sgRNA knockout: sgERN1, 10 nM)	relative cell number (sgRNA knockout: sgERN1, 100 nM)	relative cell number [9]	relative cell number [10]	relative cell number (sgRNA knockout: sgHSF2, 10 nM)	relative cell number (sgRNA knockout: sgHSF2, 100 nM)	relative cell number [11]	relative cell number [12]	relative cell number [13]	relative cell number [14]	relative cell number [15]	relative cell number [16]	relative cell number [17]	relative cell number [18]	relative cell number [19]	relative cell number [20]	relative cell number (sgRNA knockout: sgXBP1, 10 nM)	relative cell number (sgRNA knockout: sgXBP1, 100 nM)	relative cell number [21]	relative cell number [22]
Cc1cn(-c2cc(NC(=O)c3ccc(C)c(Nc4nccc(-c5cccnc5)n4)c3)cc(C(F)(F)F)c2)cn1 [Nilotinib] in the list: 128 ± 17	110 ± 4.3	104 ± 26	54.6 ± 8.3	138 ± 52	141 ± 12	98.3 ± 23	31.3 ± 26	134 ± 23	81.7 ± 19	124 ± 46	81 ± 43	70.1 ± 16	86.1 ± 28	102 ± 12	42.4 ± 23	112 ± 31	89 ± 13	85.6 ± 24	44.3 ± 22	97.5 ± 13	96.2 ± 29	101 ± 17	54.3 ± 7.5	72.7 ± 3.5	108 ± 37	98 ± 3.7	46 ± 12	50 ± 4.8	99.4 ± 24	138 ± 47	23.1 ± 6.2	79.1 ± 12	94.6 ± 46	86.2 ± 12	48.1 ± 1.5
Cn1nnc2c(C(N)=O)ncn2c1=O [Temozolomide] in the list: 120 ± 28	94.2 ± 4.2	111 ± 33	88 ± 61	136 ± 2.8	107 ± 4.2	148 ± 3.4	116 ± 36	113 ± 29	87.1 ± 28	79.8 ± 35	94.8 ± 60	81.5 ± 20	82 ± 21	86.8 ± 37	99.4 ± 45	102 ± 17	80.9 ± 5.5	108 ± 33	112 ± 62	92.6 ± 4	90.3 ± 6.4	108 ± 6.4	82.4 ± 31	116 ± 6.6	106 ± 15	115 ± 27	105 ± 36	103 ± 36	136 ± 33	128 ± 42	152 ± 59	105 ± 1.2	84.8 ± 16	115 ± 23	96 ± 42
